Assay results from PMC8049286.
These are yes or no findings as the source states them, for the method shown.

By UniProt entry, the sequences of proteins in these tests, tags left out. Where a name states a change or a piece, a line headed by the entry shows the natural chain unless it says otherwise. Chains listed by the source or under a name are the forms on record and can include a tag or linker. Residues count along the entry.
human ORP3 ORD (OSBP-related domain, residues 504-887) (Q9H4L5, form named): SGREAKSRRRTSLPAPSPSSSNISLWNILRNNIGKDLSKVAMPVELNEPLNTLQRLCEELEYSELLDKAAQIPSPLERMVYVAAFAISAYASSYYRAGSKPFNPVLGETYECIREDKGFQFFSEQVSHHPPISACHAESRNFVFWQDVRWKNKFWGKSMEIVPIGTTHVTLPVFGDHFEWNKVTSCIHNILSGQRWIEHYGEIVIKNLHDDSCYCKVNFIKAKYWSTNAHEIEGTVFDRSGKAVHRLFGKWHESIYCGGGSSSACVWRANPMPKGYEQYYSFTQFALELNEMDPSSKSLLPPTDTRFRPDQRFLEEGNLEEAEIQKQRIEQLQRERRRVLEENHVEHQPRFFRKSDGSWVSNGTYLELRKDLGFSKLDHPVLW

Columns and labels:
[1] = target: human ORP3 ORD (OSBP-related domain, residues 504-887) (human) (UniProt Q9H4L5); assay: crystal structure; apo form and PI(4)P diC8 complex, space group P3(1)21, two molecules in the asymmetric unit related by two-fold non-crystallographic symmetry; both purified
[2] = target: human ORP3 ORD (OSBP-related domain, residues 504-887) (human) (UniProt Q9H4L5); assay: SEC; Superdex 200, 20 mM Tris-HCl pH 8.0, 150 mM NaCl; purified recombinant ORP3 ORD; both purified

binding [1]: no binding | binding [2]: no binding
Substance: human ORP3 ORD (OSBP-related domain, residues 504-887) (from UniProt Q9H4L5 504-887) (domain or fragment)
